PubChem BioAssay AID504808, Drosophila RNAi Screening Center – 2011
Purpose: 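Chromatin factors that keep E2F targets switched off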 (primary screen). System: Drosophila S2 cells. Knock-down reagent: long dsRNA against Drosophila genes. Detection: 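Firefly luciferase driven by E2F sites, normalised to Renilla luciferase on the same minimal promoter, measured by plate reader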. Scale: E2F firefly: higher = more E2F reporter activity; Renilla normaliser: higher = more normaliser reporter signal. Call rule: 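a knock-down counted as active when the firefly/Renilla E2F signal rose above 50%, a threshold chosen arbitrarily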.
The screen tested about 21,000 reagents; below is a random part of those with a known target gene and a result. Over the whole deposit, 18 (0.084%) are marked active. 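Raw counts without plate normalisation, one of two replicates; the ratio scores behind the calls were not deposited.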 A plus sign joins genes that one reagent is predicted to hit. The record does not give: the amount of reagent, the time to read-out.

| gene | DRSC id | E2F firefly, rep 1 | Renilla normaliser, rep 1 | Call |
| --- | --- | --- | --- | --- |
| Atac3 (GeneID 38055) | DRSC08579 | 99063 | 4335 | inactive |
| ste24c + CG30461 | DRSC05639 | 1.48e5 | 5966 | inactive |
| ste24c + CG30461 | DRSC07316 | 1.48e5 | 4777 | inactive |
| Sp7 (GeneID 40918) | DRSC15461 | 1.53e5 | 7603 | inactive |
| FMRFa (GeneID 36030) | DRSC07428 | 1.64e5 | 4734 | inactive |
| CG9304 (GeneID 37500) | DRSC04538 | 1.13e5 | 4525 | inactive |
| Ir56c (GeneID 37251) | DRSC06544 | 1.47e5 | 5056 | inactive |
| CG33648 (GeneID 3772188) | DRSC01387 | 1.51e5 | 5968 | inactive |
| Ac13E (GeneID 32485) | DRSC19325 | 1.58e5 | 6248 | inactive |
| fzr (GeneID 45922) | DRSC18781 | 54924 | 8470 | inactive |
| CG5397 (GeneID 33313) | DRSC00683 | 82163 | 3274 | inactive |
| Ns3 (GeneID 31097) | DRSC18607 | 1769 | 1096 | inactive |
| eIF4E7 (GeneID 31059) | DRSC17782 | 1.04e5 | 5917 | inactive |
| eIF4E7 (GeneID 31059) | DRSC18623 | 1.33e5 | 6242 | inactive |
| CG31313 (GeneID 318677) | DRSC13044 | 85852 | 2460 | inactive |
| CG33282 (GeneID 2768939) | DRSC00422 | 1.55e5 | 4929 | inactive |
| 2mit (GeneID 41616) | DRSC14194 | 1.22e5 | 6434 | inactive |
| 2mit (GeneID 41616) | DRSC15224 | 1.16e5 | 5802 | inactive |
| CG42537 (GeneID 8674074) | DRSC12519 | 1.47e5 | 7322 | inactive |
| Muc68Ca (GeneID 2768980) | DRSC10312 | 49857 | 3280 | inactive |
| Muc68Ca (GeneID 2768980) | DRSC10313 | 93702 | 1361 | inactive |
| jub (GeneID 32351) | DRSC19367 | 6506 | 812 | inactive |
| CG34159 (GeneID 34353) | DRSC02885 | 1.54e5 | 4610 | inactive |
| Sas10 (GeneID 31447) | DRSC18355 | 84695 | 5309 | inactive |
| CG7296 (GeneID 34469) | DRSC03042 | 80669 | 3130 | inactive |
| CG6761 (GeneID 39134) | DRSC10705 | 71983 | 3200 | inactive |
| Nrt (GeneID 39873) | DRSC11237 | 78070 | 3593 | inactive |
| CG14113 (GeneID 50287) | DRSC10116 | 1.27e5 | 7042 | inactive |
| Grip91 (GeneID 48481) | DRSC20249 | 7670 | 740 | inactive |
| p23 (GeneID 41173) | DRSC15158 | 64143 | 3860 | inactive |
| Shmt (GeneID 31524) | DRSC18264 | 1.11e5 | 5714 | inactive |
| Vha14-1 (GeneID 36731) | DRSC07571 | 95261 | 3820 | inactive |
| Mur2B (GeneID 31111) | DRSC18545 | 90180 | 4552 | inactive |
| Mur2B (GeneID 31111) | DRSC18546 | 1.35e5 | 6073 | inactive |
| CG12129 (GeneID 36044) | DRSC06105 | 2739 | 215 | inactive |
| CG7079 (GeneID 42488) | DRSC16192 | 1.62e5 | 7675 | inactive |
| Alms1b + Alms1a | DRSC18559 | 2046 | 876 | inactive |
| Rh2 (GeneID 42261) | DRSC16821 | 1.46e5 | 8712 | inactive |
| boi (GeneID 31229) | DRSC18425 | 1.12e5 | 5451 | inactive |
| boi (GeneID 31229) | DRSC18598 | 1.29e5 | 5656 | inactive |
| CG17549 (GeneID 35212) | DRSC02625 | 78482 | 3945 | inactive |
| CG14302 (GeneID 42252) | DRSC14781 | 1.37e5 | 6748 | inactive |
| adp (GeneID 37073) | DRSC06916 | 74130 | 3374 | inactive |
| CG31810 (GeneID 318955) | DRSC01560 | 1.40e5 | 5566 | inactive |

Records above whose target name starts with B or b:
| gene | DRSC id | E2F firefly, rep 1 | Renilla normaliser, rep 1 | Call |
| --- | --- | --- | --- | --- |
| boi (GeneID 31229) | DRSC18425 | 1.12e5 | 5451 | inactive |
| boi (GeneID 31229) | DRSC18598 | 1.29e5 | 5656 | inactive |

Continued:
| gene | DRSC id | E2F firefly, rep 1 | Renilla normaliser, rep 1 | Call |
| --- | --- | --- | --- | --- |
| CG13313 (GeneID 39022) | DRSC09984 | 1.06e5 | 3538 | inactive |
| CG16734 (GeneID 41100) | DRSC15143 | 1.28e5 | 5721 | inactive |
| Sec3 (GeneID 39940) | DRSC10384 | 74135 | 3922 | inactive |
| Upf2 (GeneID 31724) | DRSC18218 | 1.15e5 | 5513 | inactive |
| cac (GeneID 32158) | DRSC19743 | 1.44e5 | 6331 | inactive |
| cac (GeneID 32158) | DRSC20354 | 8543 | 832 | inactive |
| CG6650 (GeneID 39555) | DRSC10685 | 86095 | 3420 | inactive |
| S-Lap3 (GeneID 326187) | DRSC10956 | 83132 | 3422 | inactive |
| Arp10 (GeneID 32969) | DRSC19448 | 1.50e5 | 6605 | inactive |
| cyp33 + CG34194 | DRSC05666 | 1.51e5 | 7928 | inactive |
| mTerf5 (GeneID 42182) | DRSC16209 | 67591 | 3397 | inactive |
| CG9123 (GeneID 32462) | DRSC20156 | 1.36e5 | 5222 | inactive |
| CG34034 (GeneID 3885584) | DRSC13506 | 87345 | 2286 | inactive |
| CG1690 (GeneID 36004) | DRSC06636 | 1.31e5 | 4169 | inactive |
| BORCS7 + CG13430 | DRSC06392 | 84580 | 3719 | inactive |
| BORCS7 + CG13430 | DRSC06707 | 88929 | 3608 | inactive |
| CG30271 (GeneID 246518) | DRSC04170 | 99747 | 4462 | inactive |
| CG15124 (GeneID 37256) | DRSC06546 | 1.55e5 | 5208 | inactive |
| sktl (GeneID 37356) | DRSC04715 | 70088 | 3621 | inactive |
| CG43328 (GeneID 246625) | DRSC05640 | 1.62e5 | 6423 | inactive |
| Myb (GeneID 32543) | DRSC20260 | 6834 | 700 | inactive |
| ncd (GeneID 43517) | DRSC17012 | 1403 | 784 | inactive |
| bigmax (GeneID 43293) | DRSC15481 | 1868 | 972 | inactive |
| spaw (GeneID 246568) | DRSC06824 | 1.35e5 | 4734 | inactive |
| CG2528 (GeneID 35435) | DRSC03724 | 1.11e5 | 4917 | inactive |
| CG1265 (GeneID 38517) | DRSC08288 | 95078 | 4426 | inactive |
| St1 (GeneID 37742) | DRSC04504 | 84843 | 3571 | inactive |
| Not11 (GeneID 37839) | DRSC04204 | 1.32e5 | 5316 | inactive |
| CG34163 (GeneID 5740407) | DRSC01219 | 1.47e5 | 7739 | inactive |
| CheB53b (GeneID 3346204) | DRSC05613 | 1.76e5 | 5587 | inactive |
| pira (GeneID 32229) | DRSC19494 | 1.62e5 | 6679 | inactive |
| Lon (GeneID 40138) | DRSC11049 | 73786 | 3624 | inactive |
| ABCB7 (GeneID 38193) | DRSC08603 | 93352 | 4266 | inactive |
| Hsp60D (GeneID 34763) | DRSC02543 | 1.04e5 | 4064 | inactive |
| Marf1 (GeneID 49895) | DRSC03747 | 97884 | 4120 | inactive |
| Marf1 (GeneID 49895) | DRSC03774 | 1.22e5 | 4177 | inactive |
| Gs2 (GeneID 32087) | DRSC20250 | 1.26e5 | 5906 | inactive |
| dbf (GeneID 34462) | DRSC02570 | 1.43e5 | 5234 | inactive |
| CG33483 (GeneID 2768693) | DRSC14019 | 97074 | 2480 | inactive |
| Roe1 (GeneID 36508) | DRSC07534 | 3143 | 187 | inactive |
